Test results as given in the supplement of paper PMC8090911.
Structures can show the parent of a compound that is named as a salt. Some of the results follow. Many values rest on one well or one pass, so single values are uncertain.

system: p95-ErbB2-MCF7; test: perinuclear lysosome accumulation (PNLA, size of LAMP2 puncta), robust Z-score vs plate median; higher = more perinuclear lysosome accumulation (reversal of invasive lysosome distribution); conditions: 5 µM; 24 h

Compound | perinuclear lysosome accumulation
COc1ccc(Cl)cc1C(=O)NCCc1ccc(S(=O)(=O)NC(=O)NC2CCCCC2)cc1 [Glibenclamide] | 1.12
CC#C[C@]1(O)CC[C@H]2[C@@H]3CCC4=CC(=O)CCC4=C3[C@@H](c3ccc(N(C)C)cc3)C[C@@]21C [Mifepristone] | -0.433
CCC[C@@H]1C[C@@H](C(=O)N[C@@H]([C@H]2O[C@H](SC)[C@H](OP(=O)(O)O)[C@@H](O)[C@H]2O)[C@H](C)Cl)N(C)C1 [Clindamycin Phosphate] | 0.0332
CCCOc1ccccc1-c1nc2[nH]nnc2c(=O)[nH]1 [Zaprinast] | 1.54
Cc1c(Nc2ncccc2C(=O)O)cccc1C(F)(F)F [Flunixin meglumine] | -0.265
CC[C@H](c1ccc(O)cc1)[C@@H](CC)c1ccc(O)cc1 [Hexestrol] | 1.18
CC1(C)O[C@@H]2C[C@H]3[C@@H]4C[C@H](F)C5=CC(=O)C=C[C@]5(C)[C@H]4[C@@H](O)C[C@]3(C)[C@]2(C(=O)CO)O1 [Flunisolide] | -0.989
C[C@H](CS)C(=O)N1CCC[C@H]1C(=O)O [Captopril] | 1.36
CN(Cc1cc(Br)cc(Br)c1N)C1CCCCC1 [Bromhexine hydrochloride] | -1.09
NCCc1ccc(O)c(O)c1 [Dopamine hydrochloride] | -2.1
CC(C)C(=O)c1c(C(C)C)nn2ccccc12 [Ibudilast] | -0.757
OC(CCN1CCCC1)(c1ccccc1)C1CCCCC1 (stereo not given) [Procyclidine hydrochloride] | 1.81
CC(CN(C)C)CN1c2ccccc2CCc2ccccc21 (stereo not given) [Trimipramine maleate salt] | 0.882
C=C1C(=O)O[C@H]2[C@H]1CC/C(C)=C/CC[C@@]1(C)O[C@@H]21 [Parthenolide] | -0.6
CCCCOc1ccc(C(=O)CCN2CCCCC2)cc1 [Dyclonine hydrochloride] | 0.581
Cn1nnc2c(C(N)=O)ncn2c1=O [Temozolomide] | 0.133
CN1[C@@H]2CC[C@H]1C[C@@H](OC(=O)C(O)c1ccccc1)C2 (mixture of isomers) [Homatropine hydrobromide (R,S)] | -0.000761
CC(C)(C)NC(=O)[C@H]1CC[C@H]2[C@@H]3CC[C@H]4NC(=O)C=C[C@]4(C)[C@H]3CC[C@]12C [Finasteride] | 0.589
Nc1nc(N)c2nc(-c3ccccc3)c(N)nc2n1 [Triamterene] | -0.742
CN1CCCN=C1/C=C/c1cccs1 [Pyrantel tartrate] | -0.838

Entries from the list above that have nitrogen in an aromatic ring, in the order listed:
Compound | perinuclear lysosome accumulation
CCCOc1ccccc1-c1nc2[nH]nnc2c(=O)[nH]1 [Zaprinast] | 1.54
Cc1c(Nc2ncccc2C(=O)O)cccc1C(F)(F)F [Flunixin meglumine] | -0.265
CC(C)C(=O)c1c(C(C)C)nn2ccccc12 [Ibudilast] | -0.757
Cn1nnc2c(C(N)=O)ncn2c1=O [Temozolomide] | 0.133
Nc1nc(N)c2nc(-c3ccccc3)c(N)nc2n1 [Triamterene] | -0.742

Remaining list, next part

Compound | perinuclear lysosome accumulation
CCC[C@@H]1C[C@@H](C(=O)N[C@@H]([C@H]2O[C@H](SC)[C@H](O)[C@@H](O)[C@H]2O)[C@@H](C)O)N(C)C1 [Lincomycin hydrochloride] | -0.552
C#C[C@]1(O)CC[C@H]2[C@@H]3CCC4=Cc5oncc5C[C@]4(C)[C@H]3CC[C@@]21C [Danazol] | 1.85
CCOc1ccc(Cc2nccc3cc(OCC)c(OCC)cc23)cc1OCC [Ethaverine hydrochloride] | 1.7
O=C(Nc1ccc([N+](=O)[O-])cc1Cl)c1cc(Cl)ccc1O [Niclosamide] | 5.99
CC12CC3CC(C)(C1)CC(N)(C3)C2 [Memantine Hydrochloride] | 0.0969
CCN1CCCC1CNC(=O)c1cc(S(N)(=O)=O)ccc1OC (stereo not given) [Sulpiride] | 0.267
CCCCc1oc2ccccc2c1C(=O)c1cc(I)c(OCCN(CC)CC)c(I)c1 [Amiodarone hydrochloride] | -0.000491
O=C(O)c1cccnc1 [Niacin] | -3.15
Cc1cccc(N(C)C(=S)Oc2ccc3ccccc3c2)c1 [Tolnaftate] | 0.569
O=c1[nH]c(=O)n([C@H]2C[C@H](O)[C@@H](CO)O2)cc1I [Idoxuridine] | -0.294
CC1(C)O[C@@H]2C[C@H]3[C@@H]4C[C@H](F)C5=CC(=O)CC[C@]5(C)[C@H]4[C@@H](O)C[C@]3(C)[C@]2(C(=O)CO)O1 [Flurandrenolide] | 0.248
NNC(=O)c1ccncc1 [Isoniazid] | -3.46
C[C@H](CCC(=O)O)[C@H]1CC[C@H]2[C@@H]3C(=O)C[C@@H]4CC(=O)CC[C@]4(C)[C@H]3CC(=O)[C@]12C [Dehydrocholic acid] | -0.265
CCOC(=O)C1=C(C)NC(C)=C(C(=O)OC)C1c1cccc(Cl)c1Cl (stereo not given) [Felodipine] | 0.725
O=C1c2c(O)ccc(O)c2C(=O)c2c(NCCNCCO)ccc(NCCNCCO)c21 [Mitoxantrone dihydrochloride] | 0.68
O=C(NC(Cc1cc(=O)[nH]c2ccccc12)C(=O)O)c1ccc(Cl)cc1 (stereo not given) [Rebamipide] | 0.757
Nc1ncn(C2OC(CO)C(O)C2O)c(=O)n1 (stereo not given) [Azacytidine-5] | -0.532
C[N+](C)(C)CCOC(N)=O [Carbachol] | 0.546
CC(C)(C)NC[C@H](O)COc1cccc2c1CCCC2=O [(-) -Levobunolol hydrochloride] | -1.41
O=C(O)CCC(=O)c1ccc(-c2ccccc2)cc1 [Fenbufen] | -0.0788
